# Laboratory results from patent publication US5013722A (Hoffmann-LaRoche Inc., priority 1989, dated 1991).
# HELM strings list residues between dots; [ac] is acetyl, [am] amide, other brackets name non-standard units.
# Test: general procedure: Boc solid-phase peptide synthesis; benzhydrylamine (BHA) resin, copolymer of styrene-1% divinylbenzene (Beckman); symmetrical anhydrides of Boc-amino acids
# Conditions: for step yield: late stage modification step; for isolated yield: whole synthesis
Substance,step yield,isolated yield
A-Tyr(SO3 H)-Nle-Gly-Trp-Nle-Thr(SO3 H)-N-methyl-Phe-NH2,66%,
Ac-Tyr(SO3 H)-Nle-Gly-Trp-Nle-Thr(SO3 H)-N-methyl-Phe-NH2,,31%
PEPTIDE1{[ac].[sY].M.A.W.M.[sT].[meF].[am]}$$$$V2.0,95%,
PEPTIDE1{[ac].[sY].M.A.[fW].M.[sT].[meF].[am]}$$$$V2.0,70%,6.6%
PEPTIDE1{[ac].[sY].M.G.W.M.[sT].[meF].[am]}$$$$V2.0,90%,
PEPTIDE1{[ac].[sY].M.G.[fW].M.[sT].[meF].[am]}$$$$V2.0,43%,16.1%
PEPTIDE1{[ac].[sY].[Nle].[dA].W.M.[sT].[meF].[am]}$$$$V2.0,93%,
PEPTIDE1{[ac].[sY].[Nle].[dA].[fW].M.[sT].[meF].[am]}$$$$V2.0,70%,5.36%
